Library screening results

The filed quantity is “Percent Effect” (%). The record does not define 0% and 100%; most values in the screen are far below 50% and negative numbers occur (in some assays of this library far below -100). Compounds were drawn at random from those tested, without regard to their results. Two or more numbers in one place are separate tests of the same structure; such repeats can differ widely.

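Viability assay of Plasmodium falciparum sporozoites; the read-out is not stated. The concentration is filed as 10 mM, unlikely as a test dose, so the dose is not known. Higher reads as lower viability (inferred: compounds with an IC50 in retests scored well above the rest). Strong results were mostly tested again. Of about 34,000 compounds tested this way, about 280 (0.84%) reached 50% or more in at least one test.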

compound,effect
CN(CC1(O)CCCN(Cc2cccc(F)c2F)C1=O)C1CCCCC1 (stereo unspecified),0.355
O=S(=O)(CC1CCCCO1)Nc1cc(F)ccc1-n1cccn1 (stereo unspecified),8.996
CC1Cc2ccccc2N1Cc1occc1C(=O)OCC(N)=O (stereo unspecified),5.332
CN(Cc1ccco1)c1ccc(-c2nccn2C)nn1,46.34 and 36.91
CCc1ncc2c(n1)CN(Cc1nc(-c3cccnc3)no1)CC2,5.621 and 9.522 and -8.887
O=C1N(Cc2ccncc2)CCC12CCCNC2 (stereo unspecified),17.08
O=C1CC(c2cccnc2)C2(CCN(C(=O)N3CCOCC3)CC2)N1 (stereo unspecified),10.44
CCCn1ncc(CN(Cc2cccnc2)Cc2cccs2)c1C,1.854
Cc1ccccc1C(=O)N1CCCn2cnc(CN3CCCC3=O)c2C1,-3.07
Cc1ncc(C(=O)N2CCCC(C(=O)c3nccn3C)C2)c(O)n1 (stereo unspecified),-10.27
O=C(O)C(F)(F)F.O=C1CC2(CNCCN(C(=O)Nc3ccccc3)C2)CN1 (stereo unspecified),7.015
Cc1nc(CN2CCc3ncnc(-c4ccsc4)c3CC2)cs1.O=C(O)C(F)(F)F,4.882
Cc1cc(NC(=O)NCC2CCOC2)no1 (stereo unspecified),-13.73
Nc1cc(-c2cccs2)nn(CC(=O)N2CCc3ccccc32)c1=O,7.243
[H][C@@]12CCN(Cc3ccc(C)o3)C[C@@]1([H])O[C@H](c1nc(C3CC3)cs1)C2,-16.58
Cc1nc(C)n(CC2CCCN(CCOc3cccc(F)c3)C2)n1 (stereo unspecified),-5.284
CC(C)NC(=O)N(C)C(c1cccc(F)c1)c1ccccn1 (stereo unspecified),10.19
O=C(Cc1ccccc1F)N1CCN(Cc2noc(C3CC3)n2)CC1,2.759
O=C(O)C(=O)O.c1cc(CN2CCC(c3ccc4c(c3)OCO4)CC2)ccn1,21.32
Cc1ccccc1OCCN1CCN(Cc2cnn(CCO)c2)CC1,8.847
CCN1CCN(C(=O)C(C)N2CCN(Cc3nccn3C)CC2)CC1 (stereo unspecified),5.597
Cn1ccnc1CN1CCCC(Cc2ccccn2)C1 (stereo unspecified),-9.597
O=C(O)C(F)(F)F.[H][C@@]12CCN(Cc3cccc(F)c3)[C@]1([H])CC[C@@H](C(=O)N1CCCCO1)O2,-1.19
Cc1nn(-c2ccccc2Cl)c(C)c1CCC(=O)O,0.9036
COc1c(CNCc2ccc(C(=O)N(C)C)cc2)c(C)nn1C.Cl,-12.17
c1cncc(CN2CCCCC2c2ccc(Nc3cnccn3)nc2)c1 (stereo unspecified),5.953
CC(C)N(Cc1ccccn1)S(=O)(=O)N1CCCC1c1ccco1 (stereo unspecified),-14.39
Nc1nc(N)c2c(n1)OC1(CCCN(Cc3nccs3)CC1)C2 (stereo unspecified),1.006
O=C(NCCC(=O)N1CCCc2ccccc21)c1c(F)cccc1F,-13.78
Cn1cnc2ccc(NC(=O)CC3CCN(S(C)(=O)=O)CC3)cc21,9.397
COc1ccc(S(=O)(=O)NC(=O)COc2ccc3c(c2)CCC3)cc1,5.698
CN(C)c1cc(CNC(=O)c2cccnc2O)ccn1,-1.667
COC(=O)CC(c1cnn(C)c1)c1oc(C)cc(=O)c1O (stereo unspecified),-3.222
O=C(O)C(F)(F)F.[H][C@@]12C[C@H](C(=O)NCC3CC3)CN(CCc3ccccc3)[C@]1([H])CCO2,-0.9143
CCN(C)c1ncnc2c1CCN(C(=O)c1ccno1)CC2,-0.5411
Cc1nccc(NCc2cc3n(n2)CCCN(S(C)(=O)=O)C3)n1,-7.387
[H][C@]12CN(CC(C)C)C(=O)[C@@]1([H])CN(S(=O)(=O)c1cccs1)C2,-4.448
Cc1cc(C[C@@H]2CCC[C@H]2NCc2ccc(C(F)(F)F)cc2)on1.O=C(O)CC(O)(CC(=O)O)C(=O)O,-0.6695
CCc1nc(CNC(C)Cn2cccn2)cs1 (stereo unspecified),4.8
CSc1ccc(OCCN2CCNC(=O)CC2)cc1,-10.56
CNS(=O)(=O)c1ccc(CNC(=O)C2CCCO2)cc1 (stereo unspecified),-2.999
[H][C@]12CC[C@](O)(CC1)C(CN1CCOCC1)N2S(=O)(=O)c1ccccc1 (stereo partly specified),-42.51
Cc1ccc(N2CCCN(C(=O)CC3CCCO3)CC2)nn1 (stereo unspecified),4.8
Cc1ncc(CNC(=O)CCc2ccccc2F)c(C2CCCN2C)n1 (stereo unspecified),3.131
CNC(=O)CN1CCC(c2cc(OC)cc(OC)c2)C1 (stereo unspecified),-3.657
[H][C@@]12COC[C@H](c3nc(C)no3)[C@]1([H])CN(C(=O)Cc1ccc(F)cc1)C2,0.6764
CCOc1ccc(C(=O)N2CCCC(n3ccnc3C)C2)cc1OC (stereo unspecified),0.3069
CCN1CC2(CC1=O)CN(Cc1cnn(C)c1)CCN(C(C)=O)C2.O=C(O)C(F)(F)F (stereo unspecified),-5.862
CC(=O)NC1CCc2ccc(S(=O)(=O)NCc3ncccc3C)cc21 (stereo unspecified),11.68
CCC(O)CN1CCN(C(=O)c2cccn2Cc2ccccc2)CC1 (stereo unspecified),-8.964
CN1CC(c2cc(O)nc(NCc3ccc(Cl)cc3)n2)CC1=O (stereo unspecified),12.69
CCc1ncncc1C(=O)N1CCCN(Cc2ccccc2C)CC1,6.373
CO[C@@H]1CCN(S(=O)(=O)c2cccs2)[C@H]1Cc1ccccc1,1.01
O=C(O)CC(O)(CC(=O)O)C(=O)O.[H][C@@]12CC[C@@](O)(c3ccccn3)[C@]1([H])CN(Cc1cccc(OC)c1OC)C2,8.528
COCCn1cc2c(n1)C(CNCc1ccc(F)cc1)OCC2.O=C(O)C(F)(F)F.O=C(O)C(F)(F)F (stereo unspecified),-11.95
Fc1ccccc1OC1CCN(CCn2cc3ccccc3n2)CC1,-6.088
CNCc1cc(F)ccc1Oc1ccc(F)cc1F,2.584
CCc1cc(CNC(=O)N2CCC(Cc3cnn(C)c3)C2)on1 (stereo unspecified),8.88
CCc1cnc(N2CCC3(CC2)CN(c2cccnc2)C(=O)CO3)nc1.O=C(O)C(F)(F)F,-3.657
[H][C@@]12CCCN1C[C@@H](CCSC)N(Cc1coc3ccc(C)cc3c1=O)C2,1.097 and 13.76 and 0.3121
Cc1cnc(C(=O)NC(CN2CCCC2=O)c2ccccc2)cn1 (stereo unspecified),9.633
O=C(O)C(F)(F)F.O=C(O)C(F)(F)F.[H][C@@]12CCCO[C@]1([H])[C@H](N(C)Cc1ccco1)CN(Cc1ccc(C)o1)C2,-5.109
CC(=O)N(Cc1ncc(C)o1)C1CCN(Cc2ccccc2F)C1 (stereo unspecified),6.701
CCC(=O)N1CCC(Cc2cc(Nc3ncccn3)ncn2)CC1,13.74
CN1N=C(C(=O)NCc2ccc3c(c2)CCCN3C)CCC1=O,-4.773
COC(=O)c1ccc2ccn(CC3CCCO3)c(=O)c2c1 (stereo unspecified),-6.966
CCOCCN1CCn2c(C)nnc2C1,-3.819
O=C(O)C(F)(F)F.O=C(O)C(F)(F)F.[H][C@]12C[C@@H](CN3CCCC3)N(c3nccs3)[C@@]1([H])CCN(C(C)=O)C2,-4.024

The last 5 entries again:

compound,effect
CCC(=O)N1CCC(Cc2cc(Nc3ncccn3)ncn2)CC1,13.74
CN1N=C(C(=O)NCc2ccc3c(c2)CCCN3C)CCC1=O,-4.773
COC(=O)c1ccc2ccn(CC3CCCO3)c(=O)c2c1 (stereo unspecified),-6.966
CCOCCN1CCn2c(C)nnc2C1,-3.819
O=C(O)C(F)(F)F.O=C(O)C(F)(F)F.[H][C@]12C[C@@H](CN3CCCC3)N(c3nccs3)[C@@]1([H])CCN(C(C)=O)C2,-4.024

From ChEMBL document CHEMBL3988442, “University of Dundee, Small-Polar-MMV Screening Library” (2021).